Data taken from PMC6179577.
Numbering of substitutions follows the chain as printed. Results are given in words; binding and its absence hold for the method and conditions named. In cells and extracts the contact can be indirect. Binding can be weak; no strength is given. Tags and fused reporters may be left off the sequences shown. Blank lines part the entries; values can stand above or below the binder they belong to.

Target: Claudin-7 (dog (endogenous in MDCK))
Experiment: co-IP; Claudin-7 immunoprecipitated with rabbit anti-Claudin-7 antibody and Protein A Sepharose from MDCK cell line lysates (10 mM Tris-HCl pH 7, 140 mM NaCl, 300 mM sucrose, 0.5% Triton-X-100), 16 hours at 4°C; immunoblotted for EpCAM, YFP and Claudin-7

binding: binds
B1: EpCAM-YFP (protein, UniProt P16422 24-314)
chain: QEECVCENYKLAVNCFVNNNRQCQCTSVGAQNTVICSKLAAKCLVMKAEMNGSKLGRRAKPEGALQNNDGLYDPDCDESGLFKAKQCNGTSMCWCVNTAGVRRTDKDTEITCSERVRTYWIIIELKHKAREKPYDSKSLRTALQKEITTRYQLDPKFITSILYENNVITIDLVQNSSQKTQNDVDIADVAYYFEKDVKGESLFHSKKMDLTVNGEQLDLDPGQTLIYYVDEKAPEFSMQGLKAGVIAVIVVVVIAVVAGIVVLVISRKKRMAKYEKAEIKEMGEMHRELNA

binding: binds
B2: EpCAM-YFP mutated in matriptase cleavage and dimerization domain (protein, UniProt P16422 24-314)
chain: B1 chain with R57E, R58E

binding: no binding
B3: EpCAM-YFP defective for Claudin-7 binding (protein, UniProt P16422 24-314)
chain: B1 chain with A255I, G259I
